Assay results as given in PMC11850729.
Positions count from the first letter of the chain named. These are yes or no findings as the source states them, for the method shown. Binding seen in cells or lysates may run through a third protein. Some binding calls cover weakened binding; strength is not graded here. Sequences can lack the tags named with a protein.

Key:
Test in all cases: co-IP; U2OS cells transfected with GFP-tagged bait for 24 h; NP-40 lysis buffer (0.5% NP-40, 25 mM Tris pH 7.5, 100 mM NaCl), lysate 1 mg/ml, overnight at 4 °C with GFP-NanoTrap beads; endogenous partner detected by immunoblot; GFP-KIFC1 with endogenous OTUD6B also seen in cells synchronised in mitosis (30 min into mitotic exit) with wild-type or K11-only ubiquitin overexpressed (Fig. 6D)
GFP-OTUD6B-C158S (human) = biological target: T1, GFP-OTUD6B-C158S (human) (UniProt Q8N6M0)
T1 sequence: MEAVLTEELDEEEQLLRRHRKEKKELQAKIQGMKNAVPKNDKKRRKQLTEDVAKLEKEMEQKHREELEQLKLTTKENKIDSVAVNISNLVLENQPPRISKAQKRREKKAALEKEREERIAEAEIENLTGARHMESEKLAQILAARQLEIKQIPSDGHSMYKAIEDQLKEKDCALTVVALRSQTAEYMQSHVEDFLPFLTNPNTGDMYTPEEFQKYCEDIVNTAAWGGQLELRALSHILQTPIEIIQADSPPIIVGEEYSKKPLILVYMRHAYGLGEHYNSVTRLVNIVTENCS

[1] = biological target: T2, GFP-OTUD6B ΔC (1-146) (human) (UniProt Q8N6M0)
T2 sequence: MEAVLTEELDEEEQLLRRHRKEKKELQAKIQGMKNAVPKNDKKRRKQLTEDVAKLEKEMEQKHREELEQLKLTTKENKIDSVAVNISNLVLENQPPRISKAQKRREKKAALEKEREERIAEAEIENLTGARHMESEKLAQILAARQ

GFP-OTUD6B WT (human) = biological target: T3, GFP-OTUD6B WT (human) (UniProt Q8N6M0)
T3 sequence: T1 sequence with S158C

Measured: binding

B1: endogenous KIFC1 (protein, UniProt Q9BW19 1-673)
chain: MDPQRSPLLEVKGNIELKRPLIKAPSQLPLSGSRLKRRPDQMEDGLEPEKKRTRGLGATTKITTSHPRVPSLTTVPQTQGQTTAQKVSKKTGPRCSTAIATGLKNQKPVPAVPVQKSGTSGVPPMAGGKKPSKRPAWDLKGQLCDLNAELKRCRERTQTLDQENQQLQDQLRDAQQQVKALGTERTTLEGHLAKVQAQAEQGQQELKNLRACVLELEERLSTQEGLVQELQKKQVELQEERRGLMSQLEEKERRLQTSEAALSSSQAEVASLRQETVAQAALLTEREERLHGLEMERRRLHNQLQELKGNIRVFCRVRPVLPGEPTPPPGLLLFPSGPGGPSDPPTRLSLSRSDERRGTLSGAPAPPTRHDFSFDRVFPPGSGQDEVFEEIAMLVQSALDGYPVCIFAYGQTGSGKTFTMEGGPGGDPQLEGLIPRALRHLFSVAQELSGQGWTYSFVASYVEIYNETVRDLLATGTRKGQGGECEIRRAGPGSEELTVTNARYVPVSCEKEVDALLHLARQNRAVARTAQNERSSRSHSVFQLQISGEHSSRGLQCGAPLSLVDLAGSERLDPGLALGPGERERLRETQAINSSLSTLGLVIMALSNKESHVPYRNSKLTYLLQNSLGGSAKMLMFVNISPLEENVSESLNSLRFASKVNQCVIGTAQANRK
binds: all assays above
